Data on 2 molecules can be found in paper doi:10.1101/2023.05.21.541661.

Holding throughout (test): co-IP
One experiment concerns the target T1, FLAG-MCP-SFPQ WT (UniProt P23246).
T1 sequence: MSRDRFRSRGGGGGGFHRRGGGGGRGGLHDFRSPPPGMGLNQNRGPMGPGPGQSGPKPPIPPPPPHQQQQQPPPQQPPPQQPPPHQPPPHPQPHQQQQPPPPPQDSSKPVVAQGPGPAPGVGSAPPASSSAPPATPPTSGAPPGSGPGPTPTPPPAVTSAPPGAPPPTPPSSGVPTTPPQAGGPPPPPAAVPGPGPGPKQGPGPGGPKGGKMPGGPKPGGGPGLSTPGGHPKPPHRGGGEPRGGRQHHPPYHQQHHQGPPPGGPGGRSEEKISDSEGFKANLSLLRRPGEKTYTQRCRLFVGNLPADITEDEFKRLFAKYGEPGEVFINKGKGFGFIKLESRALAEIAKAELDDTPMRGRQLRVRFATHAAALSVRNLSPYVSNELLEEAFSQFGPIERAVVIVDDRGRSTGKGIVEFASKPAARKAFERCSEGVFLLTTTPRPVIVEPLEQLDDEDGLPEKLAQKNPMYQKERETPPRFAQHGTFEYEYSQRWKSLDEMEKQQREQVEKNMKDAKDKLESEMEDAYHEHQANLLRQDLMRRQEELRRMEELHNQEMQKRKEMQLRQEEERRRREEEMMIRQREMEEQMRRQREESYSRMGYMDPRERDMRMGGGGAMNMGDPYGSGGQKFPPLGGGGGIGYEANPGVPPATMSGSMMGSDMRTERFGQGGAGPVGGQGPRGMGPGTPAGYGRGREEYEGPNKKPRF

The target in a further experiment is T2, FLAG-MCP-SFPQ ΔCC (UniProt P23246).
T2 sequence: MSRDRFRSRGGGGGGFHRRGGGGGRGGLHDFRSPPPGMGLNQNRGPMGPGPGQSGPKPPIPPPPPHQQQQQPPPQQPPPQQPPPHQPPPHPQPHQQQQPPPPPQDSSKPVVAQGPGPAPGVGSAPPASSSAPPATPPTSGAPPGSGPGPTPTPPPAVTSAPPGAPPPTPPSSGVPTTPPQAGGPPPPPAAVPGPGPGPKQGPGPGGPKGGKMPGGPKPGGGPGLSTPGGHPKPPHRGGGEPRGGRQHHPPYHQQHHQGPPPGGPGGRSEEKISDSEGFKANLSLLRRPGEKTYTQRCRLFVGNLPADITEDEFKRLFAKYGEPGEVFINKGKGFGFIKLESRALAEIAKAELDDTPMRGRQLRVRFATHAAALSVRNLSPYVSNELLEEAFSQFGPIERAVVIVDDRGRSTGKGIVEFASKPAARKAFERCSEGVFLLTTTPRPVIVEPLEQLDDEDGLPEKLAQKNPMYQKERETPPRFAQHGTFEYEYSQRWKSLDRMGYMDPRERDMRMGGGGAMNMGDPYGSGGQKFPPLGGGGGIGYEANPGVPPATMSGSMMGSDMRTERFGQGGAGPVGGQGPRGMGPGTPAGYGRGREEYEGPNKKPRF

A further experiment concerns the target T3, FLAG-MCP-SFPQ ΔPLD (UniProt P23246).
T3 sequence: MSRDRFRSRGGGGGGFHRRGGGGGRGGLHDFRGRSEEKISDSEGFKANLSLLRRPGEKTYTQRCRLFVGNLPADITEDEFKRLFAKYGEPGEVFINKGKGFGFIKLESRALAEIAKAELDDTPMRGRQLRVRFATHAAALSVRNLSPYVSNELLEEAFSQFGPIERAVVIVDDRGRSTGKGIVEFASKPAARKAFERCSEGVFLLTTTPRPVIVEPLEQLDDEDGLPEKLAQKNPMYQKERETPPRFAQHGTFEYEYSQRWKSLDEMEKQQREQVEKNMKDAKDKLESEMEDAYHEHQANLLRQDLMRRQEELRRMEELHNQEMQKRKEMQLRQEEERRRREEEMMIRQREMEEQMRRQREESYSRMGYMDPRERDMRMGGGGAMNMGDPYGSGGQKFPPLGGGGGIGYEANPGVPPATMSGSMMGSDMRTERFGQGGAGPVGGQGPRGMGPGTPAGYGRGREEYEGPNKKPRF

In the next experiment the target is T4, FLAG-MCP-SFPQ ΔRRM2/NOPS (UniProt P23246).
T4 sequence: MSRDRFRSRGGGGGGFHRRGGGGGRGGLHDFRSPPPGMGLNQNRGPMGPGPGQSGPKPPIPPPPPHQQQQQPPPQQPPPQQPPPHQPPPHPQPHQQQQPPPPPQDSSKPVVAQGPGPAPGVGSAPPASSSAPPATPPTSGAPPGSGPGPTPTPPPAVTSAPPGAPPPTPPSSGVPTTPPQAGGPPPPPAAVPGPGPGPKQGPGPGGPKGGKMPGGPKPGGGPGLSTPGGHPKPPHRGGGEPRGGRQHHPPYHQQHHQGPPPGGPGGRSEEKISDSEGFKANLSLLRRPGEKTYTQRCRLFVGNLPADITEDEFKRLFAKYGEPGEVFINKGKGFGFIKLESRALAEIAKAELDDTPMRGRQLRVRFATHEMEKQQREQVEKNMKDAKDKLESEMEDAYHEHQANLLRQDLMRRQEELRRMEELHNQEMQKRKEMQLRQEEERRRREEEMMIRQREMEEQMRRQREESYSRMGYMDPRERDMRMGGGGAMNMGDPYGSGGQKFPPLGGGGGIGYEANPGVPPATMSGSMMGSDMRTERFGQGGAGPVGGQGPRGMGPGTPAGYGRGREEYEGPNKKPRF

Another experiment deals with T5, FLAG-MCP-SFPQ WT, P23246.
T5 chain: T1 sequence
The conditions noted are these: remark: other sources report otherwise.

Results are given in words; binding and its absence hold for the method and conditions named. Binding seen in cells or lysates may run through a third protein. Some entries that bind do so weakly or less than the wild type. Sequences can lack the tags named with a protein.

B1: PSPC1 (protein, UniProt Q8WXF1 1-523)
chain: MMLRGNLKQVRIEKNPARLRALESAVGESEPAAAAAMALALAGEPAPPAPAPPEDHPDEEMGFTIDIKSFLKPGEKTYTQRCRLFVGNLPTDITEEDFKRLFERYGEPSEVFINRDRGFGFIRLESRTLAEIAKAELDGTILKSRPLRIRFATHGAALTVKNLSPVVSNELLEQAFSQFGPVEKAVVVVDDRGRATGKGFVEFAAKPPARKALERCGDGAFLLTTTPRPVIVEPMEQFDDEDGLPEKLMQKTQQYHKEREQPPRFAQPGTFEFEYASRWKALDEMEKQQREQVDRNIREAKEKLEAEMEAARHEHQLMLMRQDLMRRQEELRRLEELRNQELQKRKQIQLRHEEEHRRREEEMIRHREQEELRRQQEGFKPNYMENREQEMRMGDMGPRGAINMGDAFSPAPAGNQGPPPMMGMNMNNRATIPGPPMGPGPAMGPEGAANMGTPMMPDNGAVHNDRFPQGPPSQMGSPMGSRTGSETPQAPMSGVGPVSGGPGGFGRGSQGGNFEGPNKRRRY
For the molecule B1, the binding entry with FLAG-MCP-SFPQ WT is on record as “binds”; in the experiment with FLAG-MCP-SFPQ ΔCC, “no binding”; with FLAG-MCP-SFPQ ΔPLD it was “binds”; with FLAG-MCP-SFPQ ΔRRM2/NOPS, “no binding”.

B2: HA-SFPQ, P23246 1-707 (protein)
chain: T1 sequence
Take B2: in the experiment with FLAG-MCP-SFPQ WT, P23246, the binding entry was “binds”.
